From PMC5663708, “Novel Benzylidene Thiazolidinedione Derivatives as Partial PPARγ Agonists and their Antidiabetic Effects on Type 2 Diabetes” (Scientific Reports, 2017) come the findings set out here.

In this data set the test system is NIH/3T3 mouse embryonic fibroblast cells. The data set is described as follows: XTT cytotoxicity assay on NIH/3T3 cells. To be noted: NIH/3T3 IC50 over PPARγ EC50; values >1000 μM accepted as 1000. How it is done:
XTT is reduced to soluble formazan by this enzyme and formazan is quantified and directly proportional to the number of viable cells. […] NIH/3T3 cells were seeded at 1 × 10^4 cells into each well of 96-well plates. […] The XTT assay (Xenometrix, Allschwil, Switzerland) was performed according to the manufacturer’s instructions, after 24 h incubation with the compounds. The absorbance was determined after 2 h incubation at 480 nm with a reference wavelength of 680 nm using a microplate reader (BioTek, USA). […] The stock solutions of the compounds were prepared in DMSO and further dilutions were made with fresh culture medium. The final DMSO concentration was under 0.1%. Rosiglitazone and Pioglitazone were used as positive controls. All data were obtained from 3 independent experiments in quadruplicates.

The compound `CCCCNC(=O)CN1C(=O)S/C(=C\c2ccc(Cl)cc2)C1=O` [3a] showed an IC50/EC50 of 163.73 µM.

Consider `CCCCNC(=O)CN1C(=O)S/C(=C\c2ccccc2)C1=O` [1a], for which the IC50/EC50 stood at 142.85 µM.

Regarding `CCN(CC)C(=O)CN1C(=O)S/C(=C\c2ccccc2)C1=O` [1i], the IC50/EC50 was found to be 105.16 µM.
